Measured values published in US11672774B2, “Methods of treating squamous cell carcinomas with farnesyltransferase inhibitors” (Kura Oncology, Inc., priority 2019, dated 2023).
“Also recorded” adds a separate entry of the source. For at least one compound, name, drawing or mass did not settle the structure.

Columns and labels:
[1] = tested on: HNSCC PDX Model HN5111; experiment: tumor growth in HNSCC PDX model HN5111; format: in vivo, BALB/c nude or Nu/nu mice; conditions: PDX HN5111, H-Ras 1.3x median, H/K+N 2.2; tipifarnib 80 mg/kg BID PO 3-4 weeks; vs vehicle
[2] = tested on: HNSCC PDX Model HN3679; experiment: tumor growth in HNSCC PDX model HN3679; format: in vivo, BALB/c nude or Nu/nu mice; conditions: PDX HN3679, H-Ras 2.6x median, H/K+N 3.6; tipifarnib 80 mg/kg PO BID, palbociclib 35 mg/kg PO QD, cetuximab 1 mg/mouse IP QW; vs vehicle
[3] = tested on: HNSCC PDX Model HN2222; experiment: tumor growth in HNSCC PDX model HN2222; format: in vivo, BALB/c nude or Nu/nu mice; conditions: PDX HN2222, H-Ras 0.49x median, H/K+N 0.48; tipifarnib 80 mg/kg BID PO 3-4 weeks; vs vehicle
[4] = tested on: HNSCC PDX Model HN5115; experiment: tumor growth in HNSCC PDX model HN5115; format: in vivo, BALB/c nude or Nu/nu mice; conditions: PDX HN5115, low H-Ras expression; tipifarnib 80 mg/kg BID PO 3-4 weeks; vs vehicle
[5] = tested on: ESCC PDX Model ES0172; experiment: tumor growth in ESCC PDX model ES0172; format: in vivo, nude mice; conditions: ESCC PDX ES0172, H/K+N 6.3; tipifarnib as in Example I (80 mg/kg BID PO); vs vehicle
[6] = tested on: breast cancer PDX Model BR1458; experiment: tumor growth in breast cancer PDX model BR1458; format: in vivo, nude mice; conditions: breast cancer PDX BR1458, H/K+N 10.4; tipifarnib as in Example I (80 mg/kg BID PO); vs vehicle
[7] = tested on: HNSCC PDX Model HN3411; experiment: tumor growth in HNSCC PDX model HN3411; format: in vivo, BALB/c nude or Nu/nu mice; conditions: vs vehicle
Method: (§1) Female BALB/c nude or Nu/nu mice (6-8 weeks) were inoculated subcutaneously on the right flank with primary human tumor model fragment (2-3 mm in diameter) for tumor development. When average tumor size reaches about 250-350 mm^3, mice were randomly grouped into dosing groups. Animals were dosed with tipifarnib vehicle (20% w/v Hydroxypropyl-β-cyclodextrin) or tipifarnib at a dose of 80 mg/kg BID PO for 3-4 weeks and tumor dimensions were measured twice per week.
After tumor development, mice were administered either vehicle, tipifarnib, a second active agent, or a combination of tipifarnib and a second active agent.
(§2) After tumor development, mice were administered either vehicle, tipifarnib (at a reduced dosing of 60 mg/kg PO BID), a second active agent, or a combination of tipifarnib and a second active agent. The second agent was PI3K-α inhibitor BYL719 (50 mg/kg PO QD).

[8] = tested on: HNSCC PDX Model HN1420 (HRAS A146P); experiment: tumor growth in mutated H-Ras HNSCC PDX model HN1420; format: in vivo, BALB/c nude or Nu/nu mice; conditions: vs vehicle
Method: as §1
(§3) The ability of tipifarnib in combination with a second therapy to inhibit tumor growth was determined using selected patient-derived xenograft (PDX) models of HNSCC, wherein the selected models expressed mutated H-Ras. The expression levels of the H-Ras mutants in these PDX models were determined by RNAseq.
(§4) After tumor development, mice were administered either vehicle, tipifarnib (80 mg/kg PO BID), a second active agent, or a combination of tipifarnib and a second active agent. The second agent was alkylating agent cisplatin (3 mg/kg IP QW).
After tumor development, mice were administered either vehicle, tipifarnib (at a reduced dosing of 60 mg/kg PO BID), a second active agent, or a combination of tipifarnib and a second active agent. […]

[9] = tested on: HNSCC PDX Model HN3504 (HRAS K117L); experiment: tumor growth in mutated H-Ras HNSCC PDX model HN3504; format: in vivo, BALB/c nude or Nu/nu mice; conditions: vs vehicle
Method: as §1, §3, §4, §2

[10] = tested on: HNSCC PDX Model HN3776; experiment: tumor growth in HNSCC PDX model HN3776; format: in vivo, BALB/c nude or Nu/nu mice; conditions: PDX HN3776, H-Ras 2.2x median, H/K+N 2.7; tipifarnib 80 mg/kg PO BID, cisplatin 3 mg/kg IP QW; vs vehicle
Method: as §1
(§5) After tumor development, mice were administered either vehicle, tipifarnib (80 mg/kg PO BID), a second active agent, or a combination of tipifarnib and a second active agent.

[11] = tested on: HNSCC PDX Model HN3474; experiment: tumor growth in HNSCC PDX model HN3474; format: in vivo, BALB/c nude or Nu/nu mice; conditions: PDX HN3474, H-Ras 2.4x median, H/K+N 5.5; tipifarnib 80 mg/kg PO BID, cisplatin 3 mg/kg IP QW; vs vehicle
Method: as §1, §5

[12] = tested on: HNSCC PDX Model HN2593 (PI3K-α G118D); experiment: tumor growth in HNSCC PDX model HN2593; format: in vivo, BALB/c nude or Nu/nu mice; conditions: PDX HN2593, high H-Ras, mutated PIK3CA (G118D); tipifarnib reduced dosing 60 mg/kg PO BID, BYL719 50 mg/kg PO QD; vs vehicle
Method: as §1
As described in Example I, mice were inoculated subcutaneously on the flank with PDX HNSCC models having high H-Ras expression levels and having wild type PIK3CA expression levels HN3067 (FIG. 16A) and HN3411 (FIG. 16C), or having high H-Ras expression levels and having mutated PIK3CA expression levels HN2593 (FIG. 16B) and HN3690 (FIG. 16D), wherein the mutation is or comprises a modification in a codon of the mutant PIK3CA gene (referred to as PIK3CA^G118D and PIK3CA^E545K in FIGS. 16B and 16D, respectively) encoding an amino acid at the specified position to provide the resulting mutated PI3K-α protein PI3K-α G118D and PI3K-α E545K, respectively. After tumor development, mice were administered either vehicle, tipifarnib (at a reduced dosing of 60 mg/kg PO BID), a second active agent, or a combination of tipifarnib and a second active agent. The second agent was PI3K-α inhibitor BYL719 (50 mg/kg PO QD).

[13] = tipifarnib 80 mg/kg PO BID, cisplatin 3 mg/kg IP QW

With `Cn1cncc1[C@@](N)(c1ccc(Cl)cc1)c1ccc2c(c1)c(-c1cccc(Cl)c1)cc(=O)n2C` [tipifarnib] the tumor growth [1] was “modest inhibition in tumor growth; also recorded: partial inhibition in tumor growth; also recorded: efficacy was significantly less pronounced”, the tumor growth [2] was “significantly inhibited tumor growth; also recorded: had activity; also recorded: high activity” and the tumor growth [3] was “partial to no inhibition (inactivity) in tumor growth; also recorded: efficacy was significantly less pronounced”. The tumor growth [4] was “partial inhibition in tumor growth; also recorded: efficacy was significantly less pronounced”, the tumor growth [5] was “effectively inhibited the tumor growth” and the tumor growth [6] was “modest inhibition of tumor growth; also recorded: Such efficacy, however, was not observed”. The tumor growth ([7]; PDX HN3411, H-Ras 4.1x median, H/K+N 2.7, Example III: tipifarnib, cetuximab, cisplatin or palbociclib alone or combined) was “directly inhibited tumor growth; also recorded: partially inhibited tumor growth”, the tumor growth ([7]; PDX HN3411, high H-Ras, wild type PIK3CA, tipifarnib reduced dosing 60 mg/kg PO BID, BYL719 50 mg/kg PO QD) was “had activity” and the tumor growth [8, 13] was “high activity and induced tumor regression”. For the same compound, the tumor growth ([8]; tipifarnib reduced dosing 60 mg/kg PO BID, BYL719 50 mg/kg PO QD, GSK2141795 30 mg/kg PO QD, INK-128 0.3 mg/kg PO QD) was “induced tumor regression”, the tumor growth [9, 13] was “high activity and induced tumor regression” and the tumor growth ([9]; tipifarnib reduced dosing 60 mg/kg PO BID, BYL719 50 mg/kg PO QD) was “had activity”. The tumor growth [10] was “had activity”, the tumor growth [11] was “had activity” and the tumor growth [12] was “had activity”.
